# Data as given in doi:10.1101/2022.08.20.504624 (bioRxiv, 2022).
# No constants are given. Whether binding was seen depends on the method and setting. For some of these results: Binding calls can cover weak binding; strength is not graded here.
# T1: Chlamydomonas IFT88, full length (Chlamydomonas reinhardtii) (UniProt Q9FPW0)
# T1 sequence: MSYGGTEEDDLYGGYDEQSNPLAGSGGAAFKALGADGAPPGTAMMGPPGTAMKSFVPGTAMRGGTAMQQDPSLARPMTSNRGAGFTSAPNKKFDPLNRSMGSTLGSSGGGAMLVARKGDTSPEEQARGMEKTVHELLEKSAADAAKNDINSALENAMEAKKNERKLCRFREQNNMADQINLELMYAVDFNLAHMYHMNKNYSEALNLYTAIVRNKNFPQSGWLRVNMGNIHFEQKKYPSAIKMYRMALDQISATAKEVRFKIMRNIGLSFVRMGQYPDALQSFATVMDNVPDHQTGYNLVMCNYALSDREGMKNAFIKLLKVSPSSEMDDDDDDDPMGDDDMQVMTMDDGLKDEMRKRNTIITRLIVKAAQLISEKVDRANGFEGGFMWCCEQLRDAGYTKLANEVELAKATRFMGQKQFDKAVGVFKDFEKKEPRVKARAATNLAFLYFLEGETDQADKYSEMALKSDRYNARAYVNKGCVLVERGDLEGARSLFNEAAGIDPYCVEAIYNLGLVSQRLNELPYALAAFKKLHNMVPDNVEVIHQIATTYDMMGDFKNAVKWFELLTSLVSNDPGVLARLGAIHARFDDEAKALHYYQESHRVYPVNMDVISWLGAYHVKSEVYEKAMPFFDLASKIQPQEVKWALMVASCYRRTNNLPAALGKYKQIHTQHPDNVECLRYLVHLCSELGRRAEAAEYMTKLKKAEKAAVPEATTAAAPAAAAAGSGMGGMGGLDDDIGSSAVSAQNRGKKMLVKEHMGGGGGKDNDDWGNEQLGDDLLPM
# Columns and labels:
# [1] = molecular target: T1, Chlamydomonas IFT88, full length (Chlamydomonas reinhardtii); assay: cross-linking
# [2] = molecular target: Chlamydomonas IFT38, full length (Chlamydomonas reinhardtii); assay: cross-linking
# [3] = molecular target: Chlamydomonas IFT70 (Chlamydomonas reinhardtii); assay: cross-linking
# [4] = molecular target: Chlamydomonas IFT70 (Chlamydomonas reinhardtii); assay: crystal structure
molecule,measurement,setting,value
"Chlamydomonas IFT38, full length",binding,[1],binds
"Chlamydomonas IFT20, full length (protein, UniProt Q8LLV9 1-135) MDAVDRGVYFDEDFHVRILDVDKYNASKSLQDNTNVFINNIQNMQGLVDKYVSAIDQQVERLEAEKLKAIGLRNRVAALSEERKRKQKEQERMLAEKQEELERLQMEEQSLIKVKGEQELMIQKLSDSSSGAAYV",binding,[2],binds
"Chlamydomonas IFT46_(188-319) (domain or fragment, Chlamydomonas reinhardtii, UniProt A2T2X4 188-319, looked up) QLRQLSKEAPGAKADMVGRLEHTDENKAKKIQQWIASINDIHKAKPAATVNYSKRMPEIEALMQEWPPEVETFLKTMHMPSGDVELDIKTYARLVCTLLDIPVYDDPVESLHVLFTLYLEFKNNPIFRQHME",binding,[3],no binding
"Chlamydomonas IFT46_(165-319) (domain or fragment, UniProt A2T2X4 165-319) DYLGLKVLDEPAAKQSDPTVLTLQLRQLSKEAPGAKADMVGRLEHTDENKAKKIQQWIASINDIHKAKPAATVNYSKRMPEIEALMQEWPPEVETFLKTMHMPSGDVELDIKTYARLVCTLLDIPVYDDPVESLHVLFTLYLEFKNNPIFRQHME",binding,[4],no binding
